{"sequences": {"note": "Sequences of proteins named here, by UniProt entry; tags and fusion partners are left off. A change or cut given only in a name is not applied to a line headed by its entry.", "UniProt P18054": "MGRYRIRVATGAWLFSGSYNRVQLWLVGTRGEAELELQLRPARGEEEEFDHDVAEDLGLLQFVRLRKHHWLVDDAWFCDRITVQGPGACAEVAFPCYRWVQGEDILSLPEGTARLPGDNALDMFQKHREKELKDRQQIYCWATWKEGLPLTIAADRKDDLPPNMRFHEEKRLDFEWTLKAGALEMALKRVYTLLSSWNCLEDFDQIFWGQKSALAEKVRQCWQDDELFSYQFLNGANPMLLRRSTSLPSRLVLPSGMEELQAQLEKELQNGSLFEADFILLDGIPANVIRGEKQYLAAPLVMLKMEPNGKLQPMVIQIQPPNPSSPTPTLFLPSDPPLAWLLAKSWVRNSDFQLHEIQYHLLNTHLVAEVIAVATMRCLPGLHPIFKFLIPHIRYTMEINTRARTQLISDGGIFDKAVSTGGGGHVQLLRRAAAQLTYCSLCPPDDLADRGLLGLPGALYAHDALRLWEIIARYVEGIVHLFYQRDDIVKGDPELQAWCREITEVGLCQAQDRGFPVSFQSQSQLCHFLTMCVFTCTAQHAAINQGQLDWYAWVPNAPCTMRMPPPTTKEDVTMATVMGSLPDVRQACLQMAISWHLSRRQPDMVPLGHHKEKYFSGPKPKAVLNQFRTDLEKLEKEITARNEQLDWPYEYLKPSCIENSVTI"}, "source": "PubChem BioAssay AID1671190", "about": "(National Center for Advancing Translational Sciences (NCATS), 2021)", "note": "Values joined by “and” are separate entries in the source; they are usually repeats but may differ in a detail not shown here. Equal values may be shown once. The whole screen tested about 580,000 compounds, of which about 6,100 (1.1%) were called active. The shares of active, inactive and inconclusive entries below differ from those in the screen. The call rests on the fitted dose curve; in most records, active means well fitted inhibition curve with a large enough effect; inconclusive means small, poorly fitted or top-dose-only effect, or another doubt; inactive means no such curve, though single readings can be large or run the other way. Potencies of inconclusive entries are doubtful fits and often do not repeat. Potency means the concentration at half of the fitted maximal effect.", "data": [{"target": "Polyunsaturated fatty acid lipoxygenase ALOX12 (Homo sapiens) (UniProt P18054)", "test": "Primary qHTS assay for inhibitors of human arachidonate 12S-lipoxygenase (ALOX12): Round 2", "conditions": "purified 12hLO, xylenol orange hydroperoxide absorbance; series mostly up to 108 µM", "how_it_was_run": "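Purified human 12hLO at 150 nM in 25 mM Hepes, 0.01% Triton X-100, pH 7.0, preincubated 15 min at room temperature with compound. Reaction started with 40 uM arachidonic acid, 30 min at room temperature. Hydroperoxide measured by Fe-xylenol orange, 573/405 nm absorbance ratio.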", "values": [{"smiles": "O=c1cnc2cnc(Oc3ccccc3)nc2n1C1CC1", "Potency": "inconclusive: 2.82 µM [inhibitor, partial curve, poor fit]"}, {"smiles": "CCC(=O)OC1(C)C(=O)C2=COC(c3ccc(OC)cc3)=CC2=C(Br)C1=O", "note": "(configuration not stated)", "Potency": "active: 50.1 µM"}, {"smiles": "COc1cccc(CNC(=O)N2CCC(C3CCN(C(C)=O)CC3)C2)c1", "note": "(configuration not stated)", "Potency": "inactive"}, {"smiles": "S=c1[nH]nc(-c2ccccc2)n1/N=C/C=C/c1ccco1", "Potency": "active: 39.8 µM"}, {"smiles": "CC1CCCCC1NC1c2ccccc2-c2ccccc21", "note": "(configuration not stated)", "Potency": "inconclusive: 56.2 µM [inhibitor, partial curve, poor fit]"}, {"smiles": "CC(=O)OC[C@@H]1CN(Cc2cccc(C(F)(F)F)c2)C[C@H](n2cnc3c(NCc4ccco4)ncnc32)O1", "Potency": "inconclusive: 56.2 µM [inhibitor, partial curve, poor fit]"}, {"smiles": "Cc1cscc(C)c1=S", "Potency": "active: 17.8 µM"}, {"smiles": "N#Cc1c(N)n[nH]c1CCCNC(=O)c1ccc(Cn2nnc3ccccc32)cc1", "Potency": "inactive"}, {"smiles": "S=c1[nH]c2ccccc2n2c(=S)[nH]nc12", "Potency": "inconclusive: 5.62 µM [inhibitor, full curve, poor fit]"}, {"smiles": "CCOCc1cnc(C)nc1NCC(=O)c1c(C)[nH]c2cc(C)ccc12", "Potency": "inconclusive: 44.7 µM [inhibitor, partial curve, poor fit]"}, {"smiles": "Cn1c(COc2cccc(C(F)(F)F)c2)nnc1SCc1c(F)cccc1Cl", "Potency": "inconclusive: 44.7 µM [inhibitor, partial curve, poor fit]"}, {"smiles": "CC1=NNC(=O)C1C(c1ccc(Cl)cc1)C(C#N)C#N", "note": "(configuration not stated)", "Potency": "inactive"}, {"smiles": "Cc1c(C)n2c(SCC(=O)N3CCCCCC3)nnc2[nH]c1=O", "Potency": "inconclusive: 28.2 µM [inhibitor, single point]"}, {"smiles": "O=C1NCCC[C@@H]1NC(=O)[C@H]1CN(C(=O)c2cccc(F)c2)CCN1C(=O)c1cccnc1", "Potency": "inconclusive: 100 µM [inhibitor, partial curve, poor fit]"}, {"smiles": "COc1ccc(NC(=O)Cn2nc(-c3cc(C)ccc3C)c3c(c2=O)CCCC3)cc1", "Potency": "inconclusive: 112 µM [inhibitor, single point]"}, {"smiles": "COc1ccccc1Cc1c(C2CCCCC2)nc2ccc(C)cn12", "Potency": "inconclusive: 50.1 µM [inhibitor, partial curve, poor fit]"}, {"smiles": "C[C@]12CC[C@@H]3c4ccc(O)cc4C[C@@H](CCCCCCCCCS(=O)CCCC(F)(F)C(F)(F)F)[C@H]3[C@H]1CC[C@H]2O", "note": "(some centres not stated)", "Potency": "inconclusive: 1.09 µM [inhibitor, full curve, poor fit]"}, {"smiles": "COc1ccc(C(=O)c2ccc([N+](=O)[O-])cc2Cl)cc1", "Potency": "inactive"}, {"smiles": "CC(=O)N1CCN(c2nc(-c3ccco3)c3c(c2C#N)CC(C)(C)SC3)CC1", "Potency": "inconclusive: 50.1 µM [inhibitor, partial curve, poor fit] and active: 35.5 µM"}, {"smiles": "O=C(CN1C(=O)CC(c2ccco2)Sc2ccccc21)Nc1ccccc1F", "note": "(configuration not stated)", "Potency": "inconclusive: 50.1 µM [inhibitor, partial curve, poor fit]"}, {"smiles": "O=C(c1ccc(S(=O)(=O)N2CCC(c3nc4ccccc4[nH]3)CC2)cc1)N1CCOCC1", "Potency": "active: 5.62 µM"}, {"smiles": "Cc1sc2nc(SCC(=O)N3CCCC3)[nH]c(=O)c2c1C", "Potency": "inactive"}, {"smiles": "C=CCNC(=S)Nc1cc(C)ccn1", "Potency": "inconclusive: 89.1 µM [inhibitor, partial curve, poor fit]"}, {"smiles": "Cc1ccc(C)c(-n2c3nc(=O)[nH]c(=O)c-3cc3cc([N+](=O)[O-])ccc32)c1", "Potency": "inconclusive: 20 µM [inhibitor, partial curve, poor fit]"}, {"smiles": "O=C1[C@@H](c2ccccc2)[C@@H](c2ccccc2)N1c1cccnc1", "Potency": "inconclusive: 112 µM [inhibitor, single point]"}, {"smiles": "CSc1ccc(NC(=O)c2ccc3c(c2)N(C)C2CCCCCN2C3=O)cc1", "note": "(configuration not stated)", "Potency": "inconclusive: 44.7 µM [inhibitor, partial curve]"}, {"smiles": "CC1CCN(Cc2nnnn2CCCC(=O)N(C)C(C)c2ccccn2)CC1", "note": "(configuration not stated)", "Potency": "inactive"}, {"smiles": "COC[C@@H]1CN(C(=O)c2ccc(OC)nc2)C[C@H]1c1ccccn1", "Potency": "inactive"}, {"smiles": "CN1CCC(Oc2nccnc2N2CCc3ccccc32)C1", "note": "(configuration not stated)", "Potency": "inactive"}, {"smiles": "O=C(CSc1nc2ccccc2nc1N1CCCC1)N1CCN(c2ccc(F)cc2)CC1", "Potency": "inconclusive: 50.1 µM [inhibitor, partial curve, poor fit]"}, {"smiles": "Cc1cccc(CC(=O)N2CCC(Nc3cccn4ncnc34)CC2)c1", "Potency": "inconclusive: 3.98 µM [inhibitor, full curve, poor fit]"}, {"smiles": "CC(C)NC(=O)C[C@@H]1O[C@H](CNC(=O)c2ccccc2)[C@@H](O)[C@H]1O", "Potency": "inconclusive: 22.4 µM [inhibitor, full curve, poor fit]"}, {"smiles": "CCCCCCOC(=O)C(C#N)c1nc2ccccc2nc1N1CCOCC1", "note": "(configuration not stated)", "Potency": "inactive"}, {"smiles": "Cc1cccc(N2CCN(S(=O)(=O)c3c(C(=O)N4CCC(C)CC4)c(C)n(C)c3C)CC2)c1C", "Potency": "inconclusive: 50.1 µM [inhibitor, partial curve, poor fit]"}, {"smiles": "CCOc1ccc(C(c2c(O)cc(C)n(Cc3ccco3)c2=O)N2CCN(c3ccccc3)CC2)cc1", "note": "(configuration not stated)", "Potency": "inconclusive: 35.5 µM [inhibitor, partial curve]"}, {"smiles": "COc1ccc(NC(=O)CSC2=Nc3ccccc3C3=NC(CC(=O)NCc4ccc5c(c4)OCO5)C(=O)N23)cc1", "note": "(configuration not stated)", "Potency": "inconclusive: 22.4 µM [inhibitor, partial curve]"}, {"smiles": "Cc1cnc(NC(=O)C2CCC(C(C)(C)C)CC2)s1", "note": "(configuration not stated)", "Potency": "inactive"}, {"smiles": "O=C(Nc1ccc(Cl)c(Cl)c1)c1ccc(Cn2c(=O)[nH]c3ccsc3c2=O)cc1", "Potency": "inactive"}, {"smiles": "CN1CCCCCCN(C(=O)NC2CCCCC2)CCC1=O", "Potency": "inactive"}, {"smiles": "Cn1c(CN2CCCCC2)nc2cc(NC(=O)c3ccccc3)ccc21", "Potency": "inactive"}, {"smiles": "COC1CCN(C(=O)c2ccnc(-c3nnc4ccc(N5CCOCC5)nn34)c2)CC1", "Potency": "active: 100 µM"}, {"smiles": "N#Cc1c(N2CCSCC2)nsc1-c1ccccc1Cl", "Potency": "inconclusive: 39.8 µM [inhibitor, partial curve, poor fit]"}, {"smiles": "COc1ccc(/C=C2\\SC(=S)N(CCCC(=O)NNC(=O)c3ccccc3O)C2=O)cc1", "Potency": "inactive"}, {"smiles": "CCCN1C(=O)[C@@H]2[C@@H](CCN2C(=O)CSCC(=O)O)N(Cc2cccs2)C1=O", "Potency": "active: 31.6 µM"}, {"smiles": "Cc1ccc(C2C=C(c3ccc(Cl)cc3)Nc3nc(NC(=O)c4ccco4)nn32)cc1", "note": "(configuration not stated)", "Potency": "active: 22.4 µM"}, {"smiles": "CSc1ccc(S(=O)(=O)Nc2ccc3c(c2)NC(=O)CC3)cc1", "Potency": "inconclusive: 70.8 µM [inhibitor, partial curve, poor fit]"}, {"smiles": "CC(C)c1ccc(/C=N/O)cc1", "Potency": "inconclusive: 141 µM [inhibitor, partial curve, poor fit]"}, {"smiles": "Cc1ccc(C(=O)Nc2ccc(N3CCOCC3)cc2)cc1", "Potency": "inconclusive: 39.8 µM [inhibitor, partial curve, poor fit]"}, {"smiles": "COc1ccc(-c2cnc3cccnn23)cn1", "Potency": "inconclusive: 39.8 µM [inhibitor, partial curve, poor fit]"}, {"smiles": "CCCc1cc(=O)n2[nH]c(NCc3c(Cl)cccc3Cl)nc2n1", "Potency": "inactive"}, {"smiles": "CCN(CC)C(=O)C1CCC(CNS(=O)(=O)c2cccc3nsnc23)CC1", "note": "(configuration not stated)", "Potency": "inactive"}, {"smiles": "COc1ccc(NC2c3ccccc3C(=O)N2Cc2ccccc2Cl)cc1OC", "note": "(configuration not stated)", "Potency": "inconclusive: 31.6 µM [inhibitor, single point]"}, {"smiles": "Cc1cccc(C)c1NC(=S)NC(=O)CCc1ccccc1", "Potency": "inconclusive: 28.2 µM [inhibitor, single point]"}, {"smiles": "N#C/C(=C(/O)CCl)c1nc2c(s1)CCc1ccccc1-2", "Potency": "active: 15.8 µM"}, {"smiles": "CSc1nc(C(C)C)nc(C)c1C(=O)Nc1cccc(Br)c1", "Potency": "inconclusive: 39.8 µM [inhibitor, partial curve, poor fit]"}, {"smiles": "C[C@@H]1CN([C@@H](C)CO)C(=O)c2cc(Br)cnc2O[C@H]1CN(C)C(=O)Cc1ccccn1", "Potency": "inconclusive: 35.5 µM [inhibitor, partial curve, poor fit]"}, {"smiles": "O=C(Nc1ccc(F)cc1F)N1CCN(c2ccc(Cl)c(Cl)c2)CC1", "Potency": "inactive"}, {"smiles": "CCOC(=O)CS(=O)(=O)c1nc(-c2ccc(F)cc2)cc(C(F)(F)F)n1", "Potency": "inactive"}, {"smiles": "CC1CN(C(=O)CCC(=O)NCc2ccccc2)c2cc(Cl)ccc2O1", "note": "(configuration not stated)", "Potency": "inconclusive: 126 µM [inhibitor, partial curve, poor fit]"}, {"smiles": "COCCNc1nc(SC)nc2sc3c(c12)CCN(C)C3", "Potency": "inactive"}, {"smiles": "CC(C)(NO)/C(=N/O)c1ccc(Br)cc1", "Potency": "inconclusive: 1.12 µM [inhibitor, full curve, poor fit]"}, {"smiles": "O=C(Nc1cc(C(=O)Nc2ccccc2C(=O)O)cc(C(=O)Nc2ccccc2C(=O)O)c1)c1ccccc1", "Potency": "inconclusive: 39.8 µM [inhibitor, partial curve, poor fit]"}, {"smiles": "O=C1c2c(Cl)c(Cl)c(Cl)c(Cl)c2C(=O)N1c1nccs1", "Potency": "inconclusive: 112 µM [inhibitor, single point]"}, {"smiles": "CCC(CC)NC(=O)COC(=O)c1ccc2ccccc2n1", "Potency": "active: 6.31 µM"}, {"smiles": "N#CCCN(C(=O)COC(=O)c1cc(Cl)ccc1[N+](=O)[O-])c1cccc(C(F)(F)F)c1", "Potency": "inconclusive: 44.7 µM [inhibitor, partial curve, poor fit]"}, {"smiles": "COc1ccc(-c2nc(-c3ccccc3)c(-c3ccc(F)cc3)[nH]2)c(OC)c1C", "Potency": "inconclusive: 141 µM [inhibitor, partial curve, poor fit]"}, {"smiles": "COc1ccc(CN2CCC3(CC2)OC(=O)N(Cc2ccccc2C#N)C3(C)c2ccccc2)cc1O", "note": "(configuration not stated)", "Potency": "inconclusive: 70.8 µM [inhibitor, partial curve, poor fit]"}]}]}
